In ChEMBL document CHEMBL1165867, “Synthesis, structure and structure-activity relationship analysis of caffeic acid amides as potential antimicrobials” (2010):

How the values were obtained:
Assay in all cases: microbe, parasite or virus in culture
Type in all cases: functional
[1] = test system: Bacillus subtilis; details: ATCC 6633, 24 h
[2] = test system: Candida albicans; details: ATCC 10231, 48 h
[3] = test system: Pseudomonas fluorescens; details: ATCC 13525, 24 h
[4] = test system: Staphylococcus aureus; details: ATCC 6538, 24 h

Measured: MIC

O=C(/C=C/c1ccc(O)cc1)Nc1ccccc1 [4-HYDROXY-CINNAMANILIDE]
> 50 µg/mL: [1] | [2] | [3] | [4]
